# According to PubChem BioAssay AID1662 (Broad Institute, 2009):
# The whole screen tested about 300,000 compounds, of which about 4,000 (1.3%) were called active. This list was built around the results that the source calls inconclusive (neither active nor inactive); the mix of calls is not that of the screen.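 The calls were made as follows: active = mean replicate score, as percent of positive control median, at least 50; inconclusive = mean below 50 but one replicate at or above 50; inactive = mean and every replicate below 50.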
# Experiment: kanamycin survival loss of SKKanGAS strain – BacTiter-Glo luminescence, streptokinase expression inhibitor project, primary screen (AID 1662);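 also: strain carries kanamycin resistance gene driven by streptokinase promoter and grows in 40 µg/ml kanamycin; loss of luminescence reflects streptokinase promoter inhibition or plain growth inhibition; 0% = median of DMSO wells and 100% = positive control at its reference dose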
# Details: S. pyogenes SKKanGAS, kanamycin growth, 6 h, at 7.5 µM, active compounds read high
row,SMILES,inhibition
1,CSc1nnc2ccc(-c3ccc(C)cc3)nn12,inconclusive: 37.8%
2,Cc1ccc2ccc[n+](Cc3ccccc3)c2c1,inactive: -0.604%
3,O=C(c1ccc(CS(=O)c2ccccc2Cl)o1)N1CCN(c2ccccn2)CC1 (stereo not drawn),inactive: 1.54%
4,CCC(=O)c1cn(CC(=O)Nc2ccc(C)cc2)c2ccccc12,inconclusive: 44.5%
5,CCOc1ccc(-c2nc3n(c(=O)c2C#N)CCS3)cc1,inactive: 23.1%
6,O=c1[nH]c(=O)c2nc3c4ccccc4c4ccccc4c3nc2[nH]1,inconclusive: 40.1%
7,O=C(NCc1ccccn1)Nc1ccc(F)c(Cl)c1,inconclusive: 42.2%
8,CCCCCCCCCCCCN1[C@@H](CC(=O)O)c2cc(F)ccc2S1(=O)=O,inactive: 17.6%
9,CCOC(=O)C1CCN(C(=O)c2ccc3c(c2)NC(=O)/C(=C\c2cccc(C)c2)S3)CC1,inconclusive: 28.3%
10,c1ccc(/N=C2\N=C(Nc3ccccn3)c3ccccc32)nc1,active: 60.4%
11,O=C(COc1ccccc1/C=C1\SC(=O)NC1=O)Nc1ccccc1,inconclusive: 49.4%
12,C(=N\Nc1ncnc2sc3c(c12)CCC3)/c1cccs1,inconclusive: 45.5%
13,Cc1ccc(/C=C/C(=O)C2C(=O)c3ccccc3C2=O)cc1,inconclusive: 41.7%
14,N#CC1=C(N)OC2=C(CCc3ccccc32)C1c1ccccc1Cl (stereo not drawn),inconclusive: 45%
15,CC(C)Nc1nc(Oc2cccc(Cl)c2Cl)cc(C(F)(F)F)n1,inconclusive: 49.1%
16,O=C(Nc1nc(-c2ccc(Cl)cc2)cs1)NC1CCCCC1,inconclusive: 45.9%
17,Cc1sc2c(c1C)C(=O)NC(c1cccc(O)c1)N2 (stereo not drawn),inconclusive: 37.4%
18,COc1ccc(-c2nn(CCC#N)cc2/C=N/O)cc1OC,inactive: 1.83%
19,COC(=O)C1=C(C)NC(C)=C(C(=O)OC)C1c1ccc(-c2cc(Cl)ccc2Cl)o1,inconclusive: 49.1%
20,CC(C)(C)c1cc(NC(=O)Nc2ccc(Br)cc2Cl)no1,inactive: -2.09%
21,COc1ccc(OC)c(NC(=O)NCc2cccnc2)c1,inconclusive: 33.4%
22,CC1CCN(c2nc(-c3ccccc3)cc(C(F)(F)F)n2)CC1,inconclusive: 37%

row,SMILES,inhibition
1,Cc1occc1C(=O)NNC1=CC(=O)CC(C)(C)C1,inactive: -5.07%
2,NC(=S)N/N=C\c1c(OCc2ccccc2Cl)ccc2ccccc12,active: 49.7%
3,O=C(O)c1ccc(NC(=S)NC(=O)c2cccc(COc3ccccc3)c2)cc1,active: 58.1%
4,CC1(C)Cc2c(cnn2-c2ccc(F)cc2)C(NC(=O)CN2CCCC2=O)C1 (stereo not drawn),inactive: 0.654%
5,CCCCC(=O)NC(c1ccc(C(C)C)cc1)c1ccc2cccnc2c1O (stereo not drawn),active: 88.3%
6,CC(NS(=O)(=O)/C=C/c1ccccc1)C(=O)O (stereo not drawn),inconclusive: 32.5%
7,COc1ccc(Br)cc1S(=O)(=O)Nc1ncn[nH]1,inconclusive: 49.5%
8,COc1cccc(C(=O)N2C(C(=O)O)CSC2c2ccccc2Cl)c1 (stereo not drawn),inconclusive: 41.1%
9,Cc1nc2ccccc2c(=O)n1NC(=O)/C=C/c1ccccc1,inactive: 1.65%
10,c1ccc(Nc2nnc(-c3cccnc3)s2)cc1,inactive: 5.52%
11,CC12CCC(c3c(C(=O)Nc4nccs4)nn(-c4ccccc4)c31)C2(C)C (stereo not drawn),inconclusive: 45.1%
12,CC(C)(C)NS(=O)(=O)c1ccc(NS(=O)(=O)Cc2ccccc2)cc1,inconclusive: 30.9%
13,COc1cccc(-c2cc(C(=O)Nc3ccccc3)c3ccccc3n2)c1,inactive: 8.61%
14,CCCCNc1c(-c2ccc(-c3ccc(C(C)=O)cc3)c(OC)c2)nc2cnccn12,active: 63.8%
15,Nc1nc(Nc2ccc(Cl)cc2)nc(NCc2ccco2)c1[N+](=O)[O-],inconclusive: 33.2%
16,Cc1ccc(OC(C)C(=O)Nc2ccc3c(c2)n(C)c(=O)n3C)c(C)c1 (stereo not drawn),inactive: -12.7%
17,CC(C)(C)c1nc(NC(=O)Nc2ccccc2)sc1Br,active: 67.8%
18,Cc1ccc2cc3cc(C(=O)NCCCN4CCCCCC4)oc3nc2c1,inactive: -2.36%
19,CCn1c(SCC(=O)N2CC(C)OC(C)C2)nc2c([nH]c3ccccc32)c1=O (stereo not drawn),inconclusive: 46.5%
20,CC(=O)NC(NC(=S)Nc1ccc(N=Nc2ccccc2)cc1)C(Cl)(Cl)Cl (stereo not drawn),inconclusive: 27.6%
21,Cc1cccc2c(C(=O)N3CCN(c4ccccn4)CC3)cc(-c3cccc(Br)c3)nc12,inactive: 17.1%
22,COc1ccc(/C=C2\Sc3ccc(C(=O)N4CCc5ccccc5C4)cc3N(C)C2=O)cc1,active: 103%

# Quoted at random: 4 records from the list.
row,SMILES,inhibition
2,NC(=S)N/N=C\c1c(OCc2ccccc2Cl)ccc2ccccc12,active: 49.7%
16,Cc1ccc(OC(C)C(=O)Nc2ccc3c(c2)n(C)c(=O)n3C)c(C)c1 (stereo not drawn),inactive: -12.7%
13,COc1cccc(-c2cc(C(=O)Nc3ccccc3)c3ccccc3n2)c1,inactive: 8.61%
18,Cc1ccc2cc3cc(C(=O)NCCCN4CCCCCC4)oc3nc2c1,inactive: -2.36%

# The listing continues:

row,SMILES,inhibition
1,CC(=O)NCCc1csc(-c2ccccc2)n1,inactive: 0.874%
2,Nc1nc2ccccc2n1/N=C/c1ccc(-c2ccccc2)o1,inconclusive: 41.2%
3,Cc1oc(-c2ccccc2Cl)nc1Cn1cccc1C1=NC(c2ccccc2)CO1 (stereo not drawn),inconclusive: 49.1%
4,S=C(NCc1ccco1)N1CCN(c2nc(-c3ccc(Cl)cc3)cs2)CC1,inconclusive: 47.7%
5,CCOc1ccc2c(c1)C(C)=CC(C)(C)N2S(=O)(=O)c1ccc(NC(C)=O)cc1,inactive: -7.57%
6,CC1CCCN(CCCNC(=O)c2ccc(N3CCCC3=O)cc2)C1 (stereo not drawn),inactive: 0.927%
7,Oc1c(N=NC(=S)Nc2ccccc2F)c2ccccc2n1Cc1ccccc1,inconclusive: 48.1%
8,c1ccc(-c2oc3ncnc(NCCCn4ccnc4)c3c2-c2ccccc2)cc1,inconclusive: 49.2%
9,N/C(=N\NC(=O)c1sccc1OCc1ccc(Cl)cc1Cl)c1ccccn1,inconclusive: 37.1%
10,CCc1c(O)nc(SCC(=O)Nc2nc3ccccc3s2)n(C2CCCCC2)c1=O,inconclusive: 36.4%
11,CN(C)c1ccc(/C=N/Nc2nc3ccccc3o2)cc1,inconclusive: 48.3%
12,CCCc1cc(C(=O)Nc2ccc(C(=O)c3ccc(F)cc3)cc2)n(C)n1,inconclusive: 46.9%
13,COc1ccc(OC)c(-n2c(C)cc(/C=C3\C(=N)N4N=C(CC(=O)N5CCOCC5)SC4=NC3=O)c2C)c1,inconclusive: 33.7%
14,COc1ccc(CNC(=O)CN(C(=O)CCC(=O)Nc2nccs2)c2ccccc2C)cc1,inactive: 26.6%
15,CC(C)Cn1c(=O)c(C(=O)Nc2ccccc2S(N)(=O)=O)c(O)c2ccccc21,inconclusive: 41.6%
16,COc1ccc(S(=O)(=O)NCC(=O)N(CC2CCCO2)C(C(=O)NC2CCCC2)C(C)C)cc1 (stereo not drawn),inactive: -4.17%
17,CCOCCCN(C)C1CCN(C(=O)c2oc3ccccc3c2NC(=O)c2cccc([N+](=O)[O-])c2)CC1,inactive: 0.91%
18,O=S(=O)(Nc1cccc2cccnc12)c1ccccc1,inconclusive: 38.2%
19,C/C(N)=C(/C#N)C(=O)COC(=O)c1cc(-c2ccc(Br)cc2)nc2ccccc12,active: 70.1%
20,Cc1[nH]n(-c2ccccc2)c(=O)c1N=Nc1nccs1,active: 94%
21,COc1ccccc1N1CCN(/N=C/C=C/c2ccccc2[N+](=O)[O-])CC1,inactive: 12.8%
22,CCC(C)c1ccc(C2C3=C(Nc4nc(N)[nH]c(=O)c42)c2ccccc2C3=O)cc1 (stereo not drawn),inconclusive: 35.4%

row,SMILES,inhibition
1,COC(=O)[C@@H]1[C@@H](C#N)C2(c3ccccc3-c3ccccc32)N(c2ccc(Cl)cc2)N1C#N,inconclusive: 44.2%
2,O=C(NCCS(=O)(=O)N1CCN(c2ccccc2F)CC1)C1CC(=O)N(c2ccc(F)cc2)C1 (stereo not drawn),inconclusive: 34.4%
3,CCc1c(C)nc2ncnn2c1NCCc1ccccc1,inconclusive: 13.7%
4,CC(OC(=O)CCN=C1NS(=O)(=O)c2ccccc21)C(=O)Nc1ccc(N(C)C)cc1 (stereo not drawn),inactive: 0.546%
5,O=C(Nc1nnc(C2=COCCO2)o1)c1ccc(Cc2ccccc2)cc1,active: 93.3%
6,C=CCc1ccc(OCCCN2CCCC(C)C2)c(OC)c1 (stereo not drawn),inactive: -1.57%
7,O=C(CSc1ccccn1)Nc1nonc1[N+](=O)[O-],inconclusive: 44.2%
8,CCc1nc2c(cnn2-c2ccc(Cl)cc2)c(=O)n1-c1ccc(OC)cc1,active: 51.6%
9,CCN(CC)CCN(C(=O)CCS(=O)(=O)c1ccccc1)c1nc2cc(C)cc(C)c2s1,inconclusive: 40.7%
10,COc1ccc2[nH]c3c(=O)n(CCCCC(=O)N4CCCC4)c(=S)[nH]c3c2c1,inactive: -6.87%
11,O=C(CCNC(=O)c1ccc([N+](=O)[O-])cc1)Nc1ccc(S(=O)(=O)N2CCOCC2)cc1,inactive: 7.8%
12,Cc1ccc(NC2=NC(c3ccc(F)cc3)n3c(nc(C)cc3=O)N2)cc1 (stereo not drawn),inactive: 5.06%
13,Cc1cc(C)n2c(SCC(=O)NC3CCCCC3C)nnc2n1 (stereo not drawn),inactive: -5.93%
14,CC1CCCN(S(=O)(=O)c2ccc(C(=O)Nc3nnc(C4CC4)o3)cc2)C1 (stereo not drawn),inconclusive: 38.6%
15,Cc1ccc2nc3ccc(N4CCCCCCC4)nn3c(=O)c2c1,inconclusive: 43.1%
16,Cc1ccc(C(=O)O)cc1-c1ccc(/C=C2\SC(=O)N(CC(=O)Nc3ccccc3)C2=O)o1,inconclusive: 44.5%
17,COc1ccc(OC)c(C2C=C(C34CC5CC(CC(C5)C3)C4)NC(=S)N2)c1 (stereo not drawn),active: 52.3%
18,COc1cc(C(=S)N2CCOCC2)cc(OC)c1OC(=O)Cc1ccc(F)cc1,inactive: -5.23%
19,CCC1=NN2C(=N)/C(=C\c3cccn3-c3ccc(C)c(C)c3)C(=O)N=C2S1,inconclusive: 46.1%
20,COCCSc1ccccc1C(=O)N1CCCC(C)C1 (stereo not drawn),inconclusive: 36.9%
21,Cc1ccc(N(CC(=O)NC2CCCCC2)C(=O)CNC(=O)c2ccco2)cc1F,inactive: -1.2%
22,O=c1cc2oc3cc(O)c(O)cc3c(-c3ccccc3[N+](=O)[O-])c-2cc1O,active: 50.2%
